The target of the experiment is T1, FLAG-Strep-Med19 (endogenous 3xFLAG/Twin Strep tagged Med19) (rat (endogenous in INS-1)) (UniProt D3ZAP1).
T1 sequence: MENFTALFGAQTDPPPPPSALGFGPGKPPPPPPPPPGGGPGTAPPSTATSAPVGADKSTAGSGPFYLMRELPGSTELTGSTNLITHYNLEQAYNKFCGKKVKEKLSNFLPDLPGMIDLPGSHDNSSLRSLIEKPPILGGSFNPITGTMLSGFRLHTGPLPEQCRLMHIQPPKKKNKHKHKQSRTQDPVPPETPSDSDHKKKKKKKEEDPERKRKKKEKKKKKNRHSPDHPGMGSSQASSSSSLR
Kind of experiment: co-IP; anti-FLAG (M2 agarose) immunoprecipitates of endogenous FLAG-Strep-Med19 from INS-1 extracts, Med14 WT and Med14 S983A knock-in lines; immunoblot; cells treated with FSK, H-89 or Ex-4 (10 nM) as indicated. Background: Immunoblotting shows a protein as a band on a membrane.

These are yes or no findings as the source states them, for the method shown. In cells and extracts the contact can be indirect. Some entries that bind do so weakly or less than the wild type. Tags and fused reporters may be left off the sequences shown.

B1: Cdk8 (protein, UniProt A0A8I5ZVW8 1-507)
chain: MDYDFKVKLSSERERVEDLFEYEGCKVGRGTYGHVYKAKRKDGKDDKDYALKQIEGTGISMSACREIALLRELKHPNVISLQKVFLSHADRKVWLLFDYAEHDLWHIIKFHRASKANKKPVQLPRGMVKSLLYQILDGIHYLHANWVLHRDLKPANILVMGEGPERGRVKIADMGFARLFNSPLKPLADLDPVVVTFWYRAPELLLGARHYTKAIDIWAIGCIFAELLTSEPIFHCRQEDIKTSNPYHHDQLDRIFNVMGFPADKDWEDIKKMPEHSTLMKDFRRNTYTNCSLIKYMEKHKVKPDSKAFHLLQKLLTMDPIKRITSEQAMQDPYFLEDPLPTSDVFAGCQIPYPKREFLTEEEPDEKGDKKNQQQQQGNNHTNGTGHPGNQDSGHAQGPPLKKVRVVPPTTTSAFQSTCCLSQPWTKHITAPEQHGILSYLPAASTVLTSDTSVLSCAGVCPCTVAHAAGLAAALCGNLVWAMRMYCTTTSSQCPVAEFHSCHRSGR
Consider B1, for which the binding result is reported as “binds”.

The values are drawn from publication doi:10.1101/2025.06.17.660196.
